For the assay, the target named is Collagen I (UniProt P02454). Put plainly: fluorescence imaging of labelled protein on a protein-coated hydrogel; collagen I covalently linked (Sulfo-SANPAH) to a 30 kPa polyacrylamide gel; gel stained with rhodamine-labeled soluble vimentin; uncoated gel as control; both purified.

The chains behind the UniProt entries cited, without tags or fusion partners. Where a name states a change or a piece, a line headed by the entry shows the natural chain unless it says otherwise.
UniProt P02454: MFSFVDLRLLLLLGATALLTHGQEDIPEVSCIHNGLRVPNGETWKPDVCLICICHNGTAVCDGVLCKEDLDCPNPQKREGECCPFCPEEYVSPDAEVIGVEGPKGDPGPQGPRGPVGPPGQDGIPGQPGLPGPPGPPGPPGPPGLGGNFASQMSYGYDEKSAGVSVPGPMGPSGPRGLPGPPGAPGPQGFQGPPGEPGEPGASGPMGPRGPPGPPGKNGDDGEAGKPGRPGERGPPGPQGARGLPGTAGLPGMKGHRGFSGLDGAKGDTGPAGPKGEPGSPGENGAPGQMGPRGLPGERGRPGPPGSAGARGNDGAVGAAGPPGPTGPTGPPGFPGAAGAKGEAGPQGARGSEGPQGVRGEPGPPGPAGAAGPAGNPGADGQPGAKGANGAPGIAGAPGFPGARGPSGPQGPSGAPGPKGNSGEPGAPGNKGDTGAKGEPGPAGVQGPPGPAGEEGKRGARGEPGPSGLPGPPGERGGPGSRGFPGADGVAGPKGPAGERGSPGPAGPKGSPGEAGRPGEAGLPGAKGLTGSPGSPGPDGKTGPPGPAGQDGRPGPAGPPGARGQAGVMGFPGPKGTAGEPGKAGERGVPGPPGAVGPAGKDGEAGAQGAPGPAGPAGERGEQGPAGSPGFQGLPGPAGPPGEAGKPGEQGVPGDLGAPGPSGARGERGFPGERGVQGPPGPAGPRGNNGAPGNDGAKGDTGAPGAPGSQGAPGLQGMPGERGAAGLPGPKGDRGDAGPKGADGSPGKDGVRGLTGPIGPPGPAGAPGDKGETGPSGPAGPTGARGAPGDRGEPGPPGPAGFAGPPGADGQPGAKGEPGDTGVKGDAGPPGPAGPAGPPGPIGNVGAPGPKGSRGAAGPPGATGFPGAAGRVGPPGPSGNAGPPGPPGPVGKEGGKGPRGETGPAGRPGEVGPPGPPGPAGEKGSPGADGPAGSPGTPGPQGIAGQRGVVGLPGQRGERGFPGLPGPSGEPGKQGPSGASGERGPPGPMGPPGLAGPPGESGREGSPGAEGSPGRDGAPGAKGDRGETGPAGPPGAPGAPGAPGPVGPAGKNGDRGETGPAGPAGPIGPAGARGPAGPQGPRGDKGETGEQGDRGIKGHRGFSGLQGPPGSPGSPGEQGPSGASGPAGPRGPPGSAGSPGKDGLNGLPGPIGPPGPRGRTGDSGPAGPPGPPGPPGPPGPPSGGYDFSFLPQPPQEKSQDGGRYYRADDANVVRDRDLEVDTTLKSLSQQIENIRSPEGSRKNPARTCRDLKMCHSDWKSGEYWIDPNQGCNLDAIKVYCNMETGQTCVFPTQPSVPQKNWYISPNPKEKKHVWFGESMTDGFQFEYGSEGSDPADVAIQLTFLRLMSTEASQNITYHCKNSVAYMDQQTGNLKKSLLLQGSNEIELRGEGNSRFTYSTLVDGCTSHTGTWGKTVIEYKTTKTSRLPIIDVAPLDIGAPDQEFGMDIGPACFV
UniProt P08670: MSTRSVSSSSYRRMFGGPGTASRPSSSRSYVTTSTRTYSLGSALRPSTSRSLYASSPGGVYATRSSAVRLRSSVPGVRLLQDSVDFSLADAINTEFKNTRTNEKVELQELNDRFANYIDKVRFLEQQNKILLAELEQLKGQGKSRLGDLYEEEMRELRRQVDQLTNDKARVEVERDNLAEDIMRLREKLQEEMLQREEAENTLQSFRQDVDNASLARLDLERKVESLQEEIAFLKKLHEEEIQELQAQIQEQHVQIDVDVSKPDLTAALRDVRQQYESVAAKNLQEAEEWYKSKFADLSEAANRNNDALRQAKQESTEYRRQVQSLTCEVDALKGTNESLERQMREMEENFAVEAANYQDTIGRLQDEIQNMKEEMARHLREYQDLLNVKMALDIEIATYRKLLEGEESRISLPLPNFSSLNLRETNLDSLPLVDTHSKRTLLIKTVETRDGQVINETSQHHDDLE

Results are given in words; binding and its absence hold for the method and conditions named. Some results given as binding are weak or reduced against the parent protein; the word gives no strength.

“Rhodamine-labeled vimentin (from UniProt P08670 1-466)”: the binding result is listed as “binds”.

Source of the values: PMC10392088.
